PubChem BioAssay AID1671190 (National Center for Advancing Translational Sciences (NCATS), 2021)
The whole screen tested about 580,000 compounds, of which about 6,100 (1.1%) were called active. The inconclusive results got no clear call from the source; some entries with a clear call stand among them for comparison. Calls come from the whole dose curve; as a rule, active = well fitted inhibition curve with a large enough effect; inconclusive = small, poorly fitted or top-dose-only effect, or another doubt; inactive = no such curve, though single readings can be large or run the other way. Where the call is inconclusive, the potency comes from a doubtful curve fit.

By UniProt entry, the sequences of proteins in these tests, tags left out.
UniProt P18054, whole entry, looked up: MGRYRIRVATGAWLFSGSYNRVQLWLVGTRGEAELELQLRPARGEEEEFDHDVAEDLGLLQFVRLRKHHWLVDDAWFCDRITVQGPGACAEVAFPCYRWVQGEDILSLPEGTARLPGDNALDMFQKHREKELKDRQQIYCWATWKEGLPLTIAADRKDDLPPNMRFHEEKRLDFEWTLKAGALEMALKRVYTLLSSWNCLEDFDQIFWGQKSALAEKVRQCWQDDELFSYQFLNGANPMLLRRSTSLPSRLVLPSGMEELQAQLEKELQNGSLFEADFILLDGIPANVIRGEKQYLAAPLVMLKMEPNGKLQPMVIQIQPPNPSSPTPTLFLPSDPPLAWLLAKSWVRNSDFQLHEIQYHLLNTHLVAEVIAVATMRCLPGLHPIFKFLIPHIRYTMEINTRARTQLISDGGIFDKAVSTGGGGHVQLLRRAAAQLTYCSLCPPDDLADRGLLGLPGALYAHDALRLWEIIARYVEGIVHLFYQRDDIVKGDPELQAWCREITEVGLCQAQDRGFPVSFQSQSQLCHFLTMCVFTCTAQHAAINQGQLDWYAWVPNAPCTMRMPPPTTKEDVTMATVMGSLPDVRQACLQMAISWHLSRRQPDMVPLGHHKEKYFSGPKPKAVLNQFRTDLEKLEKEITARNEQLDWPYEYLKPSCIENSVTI

These compounds were tested against Polyunsaturated fatty acid lipoxygenase ALOX12 (Homo sapiens) (UniProt P18054) (assay: Primary qHTS assay for inhibitors of human arachidonate 12S-lipoxygenase (ALOX12): Round 2). Settings: purified 12hLO, xylenol orange hydroperoxide absorbance; activity change, negative = inhibition: at 108 µM (top of the series) unless noted.
Method in brief: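 Hydroperoxide product was detected by ferrous iron/xylenol orange as the 573 to 405 nm absorbance ratio. Arachidonic acid at 40 uM (final) was turned over for 30 min at room temperature by 150 nM human 12hLO, pH 7.0 Hepes buffer, after 15 min compound preincubation.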
% is set by controls: 0 for no effect and ±100 for the full control effect; potency is the fitted concentration of half-maximal effect.

| SMILES | Potency | activity change, negative = inhibition |
| --- | --- | --- |
| Cc1cccc(NC(=O)CC2SC(=O)N(c3ccccc3)C2=O)c1 (stereo unspecified) | inconclusive: 25.1 µM [inhibitor, single point] | – |
| CC(C1CC1)N(Cc1ccccc1)S(=O)(=O)c1ccc(Br)cc1 (stereo unspecified) | inconclusive: 5.01 µM [inhibitor, full curve, poor fit] | – |
| COc1cccc(NC(=O)C(C(C)C)n2c(=O)[nH]c3ccccc3c2=O)c1 (stereo unspecified) | – | inactive: -3.14% |
| COc1cccc(-c2cc(C(=O)NCc3ccco3)c3ccccc3n2)c1 | inconclusive: 35.5 µM [inhibitor, partial curve, poor fit] | – |
| COC[C@H]1CCCN1Cc1nc(C2(O)CCN(Cc3ccccc3C(F)(F)F)CC2)cs1 | – | inactive: 6.85% |
| O=C(CCc1nnn2c1CN(C(=O)COc1ccc(F)cc1)CC2)N1CCCC1 | – | inactive: 50% |
| CC(=O)Nc1c(C)cc(OCC(=O)O)cc1C | – | inactive: 14.1% |
| Cc1cc(C)cc(NC(=O)N2CCC(CN3CCCCCC3)CC2)c1 | inconclusive: 126 µM [inhibitor, partial curve, poor fit] | – |
| CCOCCCN(C(=O)CNC(=O)c1ccco1)C(C(=O)NC1CCCC1)c1ccccc1C (stereo unspecified) | inconclusive: 0.631 µM [inhibitor, full curve, poor fit] | – |
| O=C1COc2ccc(-c3ccc(F)c(Cl)c3)nc2CN1Cc1nc2ccccc2s1 | inconclusive: 50.1 µM [inhibitor, partial curve, poor fit] | – |
| COc1cc(NC(=O)COc2ccccc2Cl)ccc1NC(=O)c1cccs1 | – | inactive: -27.3% |
| O=C(COC(=O)c1ccccc1NCCO)NCc1cccs1 | inconclusive: 0.398 µM [inhibitor, full curve, poor fit] | – |
| CCC(=O)Nc1ccc(/C(C)=N/O)cc1 | – | inactive: -7.91% |
| COc1ccc(NC(=O)CSCC(=O)Nc2ccc(S(=O)(=O)N3CCCC3)cc2)cc1 | inconclusive: 44.7 µM [inhibitor, partial curve, poor fit] | – |
| O=C(COC(=O)CCCc1c[nH]c2ccccc12)Nc1ccc2c(c1)OCO2 | inconclusive: 44.7 µM [inhibitor, partial curve, poor fit] | – |
| Cc1cc(=O)n2c3ccccc3n(CC(O)CN3CCN(CCO)CC3)c2c1C#N (stereo unspecified) | – | inactive: -3.18% |
| CCCCn1nc(C(=O)Nc2cc(C(F)(F)F)ccc2N2CCOCC2)c2ccccc2c1=O | – | inactive: 9.37% |
| O=C(Cc1ccc(S(=O)(=O)N2CCOCC2)s1)Nc1ccc2c(c1)CCC2 | – | inactive: 23.6% |
| Cc1ccc(-c2noc3ncnc(NCCC(C)C)c23)cc1 | – | inactive: 6.51% |
| CCN(Cc1ccc(OC)c(F)c1)C(C)c1nnc(-c2ccc(F)cc2)o1 (stereo unspecified) | inconclusive: 44.7 µM [inhibitor, partial curve, poor fit] | – |
| Brc1ccc(Oc2nc(-c3ccccc3)cs2)cc1 | – | inactive: -18.9% |
| OC(C#CCN1CCCC1)c1ccccc1 (stereo unspecified) | – | inactive: -15.6% [at 57.4 µM] |
| COc1ccc(C2(C)N(O)C(C)C(c3ccccc3)=[N+]2[O-])cc1 (stereo unspecified) | – | inconclusive: -38.6% [inhibitor] |
| COc1ccc(-n2c(SCC(N)=O)nc3c(oc4ccccc43)c2=O)cc1 | inconclusive: 141 µM [inhibitor, partial curve, poor fit] | – |

| SMILES | Potency | activity change, negative = inhibition |
| --- | --- | --- |
| O=CN1CCN(CC(O)Cn2c3ccccc3c3ccccc32)CC1 (stereo unspecified) | inconclusive: 8.91 µM [inhibitor, full curve, poor fit] | – |
| CC(=O)N1CCc2c(sc3c2c(=O)n(Cc2ccccc2)c(=O)n3Cc2ccccc2F)C1 | – | inactive: 0% |
| O=C1CN(C(=O)/C=C/c2cccc(Cl)c2)c2ccccc2N1 | inconclusive: 50.1 µM [inhibitor, partial curve, poor fit] | – |
| COc1cc(/C=C(\C#N)c2nc3ccccc3[nH]2)ccc1OCc1ccccc1F | – | inactive: -9.25% |
| Cc1ccc(C(=O)c2oc3ccc(Cl)cc3c2NC(=O)CN2CCN(C)CC2)cc1 | – | inactive: 0.14% |
| CCCSc1nc(O)c(C(c2ccc(OC)c(O)c2)c2c(O)nc(SCCC)n(C)c2=O)c(=O)n1C | inconclusive: 44.7 µM [inhibitor, partial curve, poor fit] | – |
| CS(=O)(=O)c1ccc(OC[C@H]2C[C@@H](NC(=O)Nc3ccccc3)[C@H](O)[C@@H]2O)cc1 | – | inactive: 43.6% [at 176 µM] |
| COCc1nc(CCNC(=O)c2c3c(nc4ccccc24)CCCC3)no1 | – | inactive: 50.7% |
| CC(=O)Nc1ccc(S(=O)(=O)NC2C3(C)CCC(C3)C2(C)C)cc1 (stereo unspecified) | active: 3.16 µM | – |
| Cc1cccc(OC[C@H]2C[C@@H](N)[C@H](O)[C@@H]2O)n1 | inconclusive: 39.8 µM [inhibitor, full curve] | – |
| COc1ccccc1-c1cc(NC=O)c2ncc(-c3ccc(F)cc3)n2c1 | inconclusive: 126 µM [inhibitor, single point] | – |
| CCc1nc2c(OCc3ccccc3)cccn2c1N(C)C(=O)c1ccc2c(c1)OCO2 | inconclusive: 63.1 µM [inhibitor, partial curve, poor fit] | – |
| CN(C)C1=NC[C@H](Cc2ccccc2)N1CCCC1CCCCC1 | inconclusive: 126 µM [inhibitor, single point] | – |
| CC1=C(C(=O)Nc2ccccc2)C(c2ccc(C)cc2)NC(=S)N1 (stereo unspecified) | – | inactive: -31.6% |
| O=C(NNC(=O)c1ccc(F)c(S(=O)(=O)N2CCOCC2)c1)c1ccc([N+](=O)[O-])cc1 | – | inconclusive: -31.4% [inhibitor] |
| Cc1ccc(-c2csc(NC(=O)c3ccccc3F)n2)s1 | inconclusive: 50.1 µM [inhibitor, partial curve, poor fit] | – |
| N#Cc1nc(Cc2ccccc2)oc1NCc1ccc(Cl)cc1 | inconclusive: 35.5 µM [inhibitor, partial curve, poor fit] | – |
| COc1ccc2[nH]cc(CCNc3ccnc(-c4cccnc4)n3)c2c1 | – | inactive: -4.74% |
| Cc1ccc(C)c(NC(=S)NC(NC(=O)Cc2cccc3ccccc23)C(Cl)(Cl)Cl)c1 (stereo unspecified) | inconclusive: 50.1 µM [inhibitor, partial curve, poor fit] | – |
| O=C(Nc1ccccc1)C1CCN(c2nc3ccccc3o2)CC1 | – | inactive: -19.1% |
| COc1ccc(C#Cc2cccc(-c3nc(C(=O)NCc4ccc(Oc5ccccc5)cc4)cc4c3[C@@H](CCO)N(S(=O)C(C)(C)C)C4)c2)cc1OC (stereo partly specified) | inconclusive: 31.6 µM [inhibitor, partial curve] | – |
| Cc1ccc(CN2[C@@H](Cc3ccccc3)C(=O)CS2(=O)=O)cc1 | inconclusive: 44.7 µM [inhibitor, partial curve, poor fit] | – |
| CC(C)(C)CC(=O)N1CCCC(C(=O)Nc2cccc(-c3ccc(F)cc3)c2)C1 (stereo unspecified) | inconclusive: 79.4 µM [inhibitor, partial curve, poor fit] | – |
| COc1ccccc1C1CCN(c2ccc(CO)cc2[N+](=O)[O-])CC1 | inconclusive: 112 µM [inhibitor, single point] | – |

An excerpt of these results, as tab-separated lines.
SMILES	Potency	activity change, negative = inhibition
CS(=O)(=O)c1ccc(OC[C@H]2C[C@@H](NC(=O)Nc3ccccc3)[C@H](O)[C@@H]2O)cc1	–	inactive: 43.6% [at 176 µM]
COCc1nc(CCNC(=O)c2c3c(nc4ccccc24)CCCC3)no1	–	inactive: 50.7%
CC(=O)Nc1ccc(S(=O)(=O)NC2C3(C)CCC(C3)C2(C)C)cc1 (stereo unspecified)	active: 3.16 µM	–
Cc1cccc(OC[C@H]2C[C@@H](N)[C@H](O)[C@@H]2O)n1	inconclusive: 39.8 µM [inhibitor, full curve]	–
COc1ccccc1-c1cc(NC=O)c2ncc(-c3ccc(F)cc3)n2c1	inconclusive: 126 µM [inhibitor, single point]	–
CCc1nc2c(OCc3ccccc3)cccn2c1N(C)C(=O)c1ccc2c(c1)OCO2	inconclusive: 63.1 µM [inhibitor, partial curve, poor fit]	–
CN(C)C1=NC[C@H](Cc2ccccc2)N1CCCC1CCCCC1	inconclusive: 126 µM [inhibitor, single point]	–
CC1=C(C(=O)Nc2ccccc2)C(c2ccc(C)cc2)NC(=S)N1 (stereo unspecified)	–	inactive: -31.6%
O=C(NNC(=O)c1ccc(F)c(S(=O)(=O)N2CCOCC2)c1)c1ccc([N+](=O)[O-])cc1	–	inconclusive: -31.4% [inhibitor]
Cc1ccc(-c2csc(NC(=O)c3ccccc3F)n2)s1	inconclusive: 50.1 µM [inhibitor, partial curve, poor fit]	–
N#Cc1nc(Cc2ccccc2)oc1NCc1ccc(Cl)cc1	inconclusive: 35.5 µM [inhibitor, partial curve, poor fit]	–
COc1ccc2[nH]cc(CCNc3ccnc(-c4cccnc4)n3)c2c1	–	inactive: -4.74%
Cc1ccc(C)c(NC(=S)NC(NC(=O)Cc2cccc3ccccc23)C(Cl)(Cl)Cl)c1 (stereo unspecified)	inconclusive: 50.1 µM [inhibitor, partial curve, poor fit]	–
O=C(Nc1ccccc1)C1CCN(c2nc3ccccc3o2)CC1	–	inactive: -19.1%
COc1ccc(C#Cc2cccc(-c3nc(C(=O)NCc4ccc(Oc5ccccc5)cc4)cc4c3[C@@H](CCO)N(S(=O)C(C)(C)C)C4)c2)cc1OC (stereo partly specified)	inconclusive: 31.6 µM [inhibitor, partial curve]	–
Cc1ccc(CN2[C@@H](Cc3ccccc3)C(=O)CS2(=O)=O)cc1	inconclusive: 44.7 µM [inhibitor, partial curve, poor fit]	–

Remaining list, next part.

| SMILES | Potency | activity change, negative = inhibition |
| --- | --- | --- |
| O=C(NC1CCN(C(=S)Nc2ccccc2Cl)CC1)C1CCCCC1 | inconclusive: 28.2 µM [inhibitor, partial curve, poor fit] | – |
| Cc1ccc(-c2nc(S(=O)(=O)c3ccc(F)cc3)c(N(C)C)o2)cc1 | inconclusive: 100 µM [inhibitor, partial curve, poor fit] | – |
| O=C(NCc1cccc(F)c1)c1nc2c(o1)CCN(CCCc1ccccc1)CC2 | inconclusive: 35.5 µM [inhibitor, partial curve] | – |
| C[C@@H]1CN([C@H](C)CO)C(=O)CCCn2cc(nn2)CO[C@H]1CN(C)S(=O)(=O)c1cn(C)cn1 | inconclusive: 126 µM [inhibitor, single point] | – |
| O=C(Cn1nc(-c2ccco2)ccc1=O)Nc1ccc(Br)cc1 | inconclusive: 35.5 µM [inhibitor, partial curve, poor fit] | – |
| CCCOC(=O)COc1ccc2c(=O)c(Oc3ccc(CC)cc3)coc2c1 | – | inactive: -17.4% |
| O=[S+]1([O-])NCC2(CCCN(Cc3ccc(F)cc3)C2)Nc2ccccc21 (stereo unspecified) | inconclusive: 22.4 µM [inhibitor, partial curve] | – |
| OC1(CN2CCOCC2)C2CN3CCN(C2)CC1(c1ccccc1)C3 (stereo unspecified) | – | inactive: 7.51% |
| O=C(NCC1CCCCC1)c1ccc(=O)[nH]c1 | – | inactive: 2.95% |
| CCN1C(=NCCN2CCOCC2)N[C@@H](c2ccccc2)C(C(=O)OC)=C1C | – | inactive: -26.2% |
| Cc1ccc(NC(=O)CCc2ncc(-c3ccc(F)cc3F)o2)c(Cl)c1 | – | inactive: -3.63% |
| CC(C)c1ccc(NC(=O)C2CCN(C(=O)[C@@H]3Cc4ccccc4CN3)CC2)cc1 | inconclusive: 56.2 µM [inhibitor, partial curve, poor fit] | – |
| O=C(NCc1cccnc1)C1(c2cccc(C(F)(F)F)c2)CCOCC1 | – | inactive: -29.7% |
| Cc1ccc(N/C(C(Cl)=C(Cl)Cl)=C(/Cl)[N+](=O)[O-])c(C)c1 | inconclusive: 17.8 µM [inhibitor, partial curve] | – |
| NC1=NC(=O)S/C1=C\c1ccc(F)cc1 | – | inactive: 10.6% |
| C=CCn1c(CCC(O)COCCCCC)n[nH]c1=S (stereo unspecified) | inconclusive: 22.4 µM [inhibitor, full curve, poor fit] | – |
| COc1cccc(NC(=O)[C@@H](NC(=O)N2CCn3c2nc2ccccc23)C(C)C)c1 | – | inactive: 0.323% |
| C=C(C(=O)c1ccccc1)C(C)C(=C)C(=O)c1ccccc1 | – | inactive: -1.63% |
| COCCN1C(=O)c2n[nH]c(-c3ccco3)c2C1c1ccccc1 (stereo unspecified) | inconclusive: 7.94 µM [inhibitor, partial curve, poor fit] | – |
| Cc1cc2nc(CSc3nc4ccc(NC(=O)c5ccccc5)cc4s3)cc(=O)n2o1 | – | inactive: 40.7% |
| COc1cc(CNCc2ccncc2)cc(Br)c1OCc1ccccc1F | – | inactive: -33.5% |
| CC(=O)N1CCOc2ccc(S(=O)(=O)Nc3cccc(C)n3)cc21 | – | inactive: -18.7% |
| CC(C)n1cc2cc(C(=O)N3CCN(Cc4ccc5c(c4)OCO5)CC3)sc2c1 | inconclusive: 5.62 µM [inhibitor, partial curve, poor fit] | – |
